Not every detail of the peptide structures is certain; ends, links or a residue may be inferred. Where a SMILES comes first, the peptide text is derived from it.
Test system: normal male Sprague Dawley rats
Assay: Hot plate response latency in normal rats
Format: in vivo, rat
Conditions: intrathecal injection, hot plate 52.5° C., up to 180 minutes

## CC[C@H](C)[C@H](NC(=O)[C@H](CCC(=O)O)NC(=O)[C@H](CCCCN)NC(=O)[C@H](CCC(=O)O)NC(=O)[C@@H](NC(=O)[C@H](CCCCN)NC(=O)[C@H](CC(N)=O)NC(=O)[C@H](CC(N)=O)NC(=O)[C@H](CC(=O)O)NC(=O)[C@@H](NC(=O)[C@H](CC(C)C)NC(=O)[C@H](CCCCN)NC(=O)[C@@H](NC(=O)[C@@H](NC(=O)[C@H](CCC(=O)O)NC(=O)[C@H](CCCCN)NC(=O)[C@@H](NC(=O)[C@H](CC(C)C)NC(=O)[C@H](Cc1ccccc1)NC(=O)[C@H](CCC(=O)O)NC(=O)[C@@H](N)CS)C(C)C)C(C)C)[C@@H](C)O)[C@@H](C)CC)[C@@H](C)O)C(=O)N[C@@H](CC(C)C)C(=O)O [SEQ ID NO: 1] (H-CEFLVKEVTKLIDNNKTEKEIL-OH)
  hot plate response latency: No significant elevation of the hot plate response latency

From patent publication US6268347A, “Prosaposin-derived peptides” (Regents of the University of CA, priority 1999, dated 2001)
